In article PMC10163259, “KK-LC-1 as a therapeutic target to eliminate ALDH^+ stem cells in triple negative breast cancer” (Nature Communications, 2023):
These are yes or no findings as the source states them, for the method shown. Binding seen in cells or lysates may run through a third protein. Some binding calls cover weakened binding; strength is not graded here.

Protein sequences, listed by entry. Tags and fused reporters are not part of them. Residues count along the entry.
UniProt Q14517, residues 22-4588: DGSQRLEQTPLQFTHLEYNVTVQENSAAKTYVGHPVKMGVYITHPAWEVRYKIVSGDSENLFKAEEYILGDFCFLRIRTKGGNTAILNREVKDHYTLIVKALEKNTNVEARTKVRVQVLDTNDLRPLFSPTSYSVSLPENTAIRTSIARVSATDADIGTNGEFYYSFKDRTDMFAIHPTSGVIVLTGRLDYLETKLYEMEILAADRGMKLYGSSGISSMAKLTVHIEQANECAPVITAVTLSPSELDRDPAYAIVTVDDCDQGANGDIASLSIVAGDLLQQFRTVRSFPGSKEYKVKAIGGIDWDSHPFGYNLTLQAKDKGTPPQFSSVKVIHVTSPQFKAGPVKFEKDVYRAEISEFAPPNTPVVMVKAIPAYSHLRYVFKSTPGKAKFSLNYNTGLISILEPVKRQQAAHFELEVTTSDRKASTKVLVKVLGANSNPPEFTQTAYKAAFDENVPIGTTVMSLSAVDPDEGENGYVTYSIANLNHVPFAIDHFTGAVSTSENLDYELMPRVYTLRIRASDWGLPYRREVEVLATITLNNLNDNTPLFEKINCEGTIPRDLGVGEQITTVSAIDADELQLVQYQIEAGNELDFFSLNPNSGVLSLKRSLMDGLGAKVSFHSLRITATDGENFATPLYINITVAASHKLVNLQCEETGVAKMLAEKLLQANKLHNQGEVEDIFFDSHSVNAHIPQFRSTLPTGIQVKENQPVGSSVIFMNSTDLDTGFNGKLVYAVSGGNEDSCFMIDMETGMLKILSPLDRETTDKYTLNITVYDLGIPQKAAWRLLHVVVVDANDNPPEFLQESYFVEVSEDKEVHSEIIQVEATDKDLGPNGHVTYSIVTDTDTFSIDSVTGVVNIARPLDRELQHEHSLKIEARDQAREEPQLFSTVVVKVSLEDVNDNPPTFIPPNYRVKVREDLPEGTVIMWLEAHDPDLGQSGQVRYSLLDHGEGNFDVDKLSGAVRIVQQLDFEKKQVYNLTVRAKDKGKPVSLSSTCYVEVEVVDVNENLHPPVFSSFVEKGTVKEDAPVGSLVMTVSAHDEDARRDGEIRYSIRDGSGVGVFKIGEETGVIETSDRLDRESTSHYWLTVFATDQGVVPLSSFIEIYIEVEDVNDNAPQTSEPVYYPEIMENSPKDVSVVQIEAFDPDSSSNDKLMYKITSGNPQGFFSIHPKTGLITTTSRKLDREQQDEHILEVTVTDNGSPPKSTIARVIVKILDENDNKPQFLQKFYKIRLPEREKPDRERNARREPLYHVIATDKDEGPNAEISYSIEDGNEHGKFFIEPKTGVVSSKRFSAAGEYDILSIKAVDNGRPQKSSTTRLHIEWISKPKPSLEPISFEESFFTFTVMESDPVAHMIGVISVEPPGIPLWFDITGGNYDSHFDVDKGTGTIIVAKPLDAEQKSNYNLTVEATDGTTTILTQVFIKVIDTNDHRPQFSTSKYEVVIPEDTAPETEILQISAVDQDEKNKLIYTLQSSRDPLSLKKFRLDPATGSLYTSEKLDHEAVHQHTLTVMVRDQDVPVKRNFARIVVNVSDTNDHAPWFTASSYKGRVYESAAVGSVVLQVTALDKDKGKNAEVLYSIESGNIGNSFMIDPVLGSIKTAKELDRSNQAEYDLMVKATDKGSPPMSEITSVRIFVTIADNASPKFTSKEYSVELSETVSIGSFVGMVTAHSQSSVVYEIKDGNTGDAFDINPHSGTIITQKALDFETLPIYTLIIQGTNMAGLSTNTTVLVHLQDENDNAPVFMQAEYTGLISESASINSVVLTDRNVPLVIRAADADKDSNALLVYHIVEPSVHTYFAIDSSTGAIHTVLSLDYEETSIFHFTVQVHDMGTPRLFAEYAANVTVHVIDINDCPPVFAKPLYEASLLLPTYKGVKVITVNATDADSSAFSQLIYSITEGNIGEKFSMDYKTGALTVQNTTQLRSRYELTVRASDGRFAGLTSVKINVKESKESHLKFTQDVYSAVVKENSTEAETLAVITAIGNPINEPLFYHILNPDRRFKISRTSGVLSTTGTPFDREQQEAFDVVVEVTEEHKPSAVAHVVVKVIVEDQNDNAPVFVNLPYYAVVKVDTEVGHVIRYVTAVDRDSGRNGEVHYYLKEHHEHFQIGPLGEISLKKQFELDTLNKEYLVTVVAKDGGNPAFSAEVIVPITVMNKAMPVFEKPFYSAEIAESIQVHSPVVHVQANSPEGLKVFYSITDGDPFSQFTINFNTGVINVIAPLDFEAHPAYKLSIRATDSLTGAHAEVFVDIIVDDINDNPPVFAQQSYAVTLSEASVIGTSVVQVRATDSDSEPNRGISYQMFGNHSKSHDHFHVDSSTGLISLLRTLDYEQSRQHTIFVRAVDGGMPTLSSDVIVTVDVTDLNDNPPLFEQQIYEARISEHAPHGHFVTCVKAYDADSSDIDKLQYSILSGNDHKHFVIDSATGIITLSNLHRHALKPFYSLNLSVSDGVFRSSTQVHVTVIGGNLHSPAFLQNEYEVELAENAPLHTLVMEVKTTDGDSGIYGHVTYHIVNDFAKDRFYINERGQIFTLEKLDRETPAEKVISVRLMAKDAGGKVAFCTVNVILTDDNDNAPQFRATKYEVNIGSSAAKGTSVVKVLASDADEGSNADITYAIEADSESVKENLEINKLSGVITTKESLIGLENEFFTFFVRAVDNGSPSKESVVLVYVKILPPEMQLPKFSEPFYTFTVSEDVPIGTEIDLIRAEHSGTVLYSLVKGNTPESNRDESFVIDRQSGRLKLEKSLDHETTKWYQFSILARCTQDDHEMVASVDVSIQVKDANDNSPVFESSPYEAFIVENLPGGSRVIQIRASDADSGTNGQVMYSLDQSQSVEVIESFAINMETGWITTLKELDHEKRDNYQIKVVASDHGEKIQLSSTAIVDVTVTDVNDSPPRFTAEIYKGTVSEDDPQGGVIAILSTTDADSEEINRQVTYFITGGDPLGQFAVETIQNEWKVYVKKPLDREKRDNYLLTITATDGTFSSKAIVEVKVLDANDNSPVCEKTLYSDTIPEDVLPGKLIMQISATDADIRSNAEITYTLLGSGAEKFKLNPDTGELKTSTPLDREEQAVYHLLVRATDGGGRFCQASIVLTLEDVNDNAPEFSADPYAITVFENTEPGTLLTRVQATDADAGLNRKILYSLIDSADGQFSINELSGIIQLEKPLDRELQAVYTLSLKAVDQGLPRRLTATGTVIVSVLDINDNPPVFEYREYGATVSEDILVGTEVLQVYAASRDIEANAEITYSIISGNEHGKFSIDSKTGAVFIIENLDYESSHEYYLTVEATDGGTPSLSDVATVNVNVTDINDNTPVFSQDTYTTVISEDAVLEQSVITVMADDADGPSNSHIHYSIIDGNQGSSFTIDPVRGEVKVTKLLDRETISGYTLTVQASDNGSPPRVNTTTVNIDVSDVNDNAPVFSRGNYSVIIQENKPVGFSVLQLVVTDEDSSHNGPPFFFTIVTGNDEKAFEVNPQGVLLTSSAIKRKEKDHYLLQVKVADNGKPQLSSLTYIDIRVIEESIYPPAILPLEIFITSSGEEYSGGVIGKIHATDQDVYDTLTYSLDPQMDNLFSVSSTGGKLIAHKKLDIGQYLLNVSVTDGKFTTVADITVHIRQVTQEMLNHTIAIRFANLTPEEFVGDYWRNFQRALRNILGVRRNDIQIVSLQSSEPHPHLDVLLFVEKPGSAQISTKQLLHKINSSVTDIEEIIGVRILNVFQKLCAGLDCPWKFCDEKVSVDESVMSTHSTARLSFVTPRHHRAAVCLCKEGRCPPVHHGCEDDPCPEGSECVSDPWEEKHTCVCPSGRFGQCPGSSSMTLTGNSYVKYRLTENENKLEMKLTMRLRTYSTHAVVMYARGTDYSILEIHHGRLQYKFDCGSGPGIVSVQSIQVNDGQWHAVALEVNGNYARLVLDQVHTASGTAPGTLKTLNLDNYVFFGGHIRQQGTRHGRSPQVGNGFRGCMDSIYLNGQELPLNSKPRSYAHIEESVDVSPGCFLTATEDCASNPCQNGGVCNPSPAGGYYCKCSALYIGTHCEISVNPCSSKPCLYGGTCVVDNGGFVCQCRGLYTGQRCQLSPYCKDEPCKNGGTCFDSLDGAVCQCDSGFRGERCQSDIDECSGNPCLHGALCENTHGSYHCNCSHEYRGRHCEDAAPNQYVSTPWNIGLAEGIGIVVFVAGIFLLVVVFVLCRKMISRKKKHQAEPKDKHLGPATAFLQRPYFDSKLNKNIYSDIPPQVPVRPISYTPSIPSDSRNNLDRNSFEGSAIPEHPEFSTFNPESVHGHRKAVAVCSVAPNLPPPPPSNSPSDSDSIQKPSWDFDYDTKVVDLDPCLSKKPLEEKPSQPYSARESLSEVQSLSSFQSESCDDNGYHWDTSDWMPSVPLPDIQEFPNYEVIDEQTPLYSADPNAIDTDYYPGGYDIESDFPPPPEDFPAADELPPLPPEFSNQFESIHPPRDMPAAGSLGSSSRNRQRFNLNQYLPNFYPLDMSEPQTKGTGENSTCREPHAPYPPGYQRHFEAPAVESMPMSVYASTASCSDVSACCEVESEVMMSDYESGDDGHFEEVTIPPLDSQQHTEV

Molecular target: T1, Kita-Kyushu lung cancer antigen-1 (KK-LC-1) (human (endogenous in MDA-MB-231 and MDA-MB-468)) (UniProt Q5H943)
T1 sequence: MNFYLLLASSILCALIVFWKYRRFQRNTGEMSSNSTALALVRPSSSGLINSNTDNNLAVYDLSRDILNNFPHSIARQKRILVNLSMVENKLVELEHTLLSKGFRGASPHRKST
Experiment: co-IP; endogenous proteins; whole-cell lysates of MDA-MB-231 and MDA-MB-468 cells in RIPA buffer, primary antibody overnight at 4 °C, protein A/G sepharose beads 2 h at 4 °C, 3 washes with RIPA, immunoblot; also after treatment of the cells with 5 µM Z8 or DMSO (Z8 dramatically decreased the co-immunoprecipitation)

binding: binds
Substance: FAT1 (from UniProt Q14517 22-4588)
